Data published in PubChem BioAssay AID1439 (NMMLSC, 2008).
In all, about 220,000 compounds went through this assay and about 770 (0.35%) were called active. The inconclusive results got no clear call from the source; some entries with a clear call stand among them for comparison. Rule as the data show it: active = binding response below about 49% or above about 150%; inconclusive = no clear call, values can overlap the other calls; inactive = in between.

By UniProt entry, the sequences of proteins in these tests, tags left out.
UniProt P09471, whole entry, looked up: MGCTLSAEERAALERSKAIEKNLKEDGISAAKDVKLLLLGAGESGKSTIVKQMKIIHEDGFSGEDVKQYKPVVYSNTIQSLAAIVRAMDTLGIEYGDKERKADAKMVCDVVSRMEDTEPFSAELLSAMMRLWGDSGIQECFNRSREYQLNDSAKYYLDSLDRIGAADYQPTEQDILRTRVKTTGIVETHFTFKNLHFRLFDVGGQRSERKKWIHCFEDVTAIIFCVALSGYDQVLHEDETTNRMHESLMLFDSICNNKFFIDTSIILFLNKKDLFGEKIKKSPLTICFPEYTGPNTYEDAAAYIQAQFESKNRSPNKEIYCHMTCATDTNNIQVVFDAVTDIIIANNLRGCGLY

Each compound was assayed against Guanine nucleotide-binding protein G(o) subunit alpha (Homo sapiens) (UniProt P09471) (assay: RGS7-Galphao binding modulators, primary screen, biochemical, multiplexed bead flow cytometry (AID 1439;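 also: fluorescent Galphao held in activated GDP-AlF4 state binding bead-coupled RGS7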)). Settings: at 10 µM, actives lie on both sides.

Row | Structure (SMILES) | binding response (% of control)
1 | CCOC(=O)C1C(c2cccc([N+](=O)[O-])c2)C2C(=O)NN=C2CC1(C)O (stereo not drawn) | inactive: 103%
2 | COc1ccc(Cl)cc1NC(=S)NNC(=O)c1cccs1 | inactive: 110%
3 | CC(C)C(NS(=O)(=O)c1cccc2nsnc12)C(=O)NCc1ccco1 (stereo not drawn) | inconclusive: 85.1%
4 | CCCCCSc1nnc(-c2ccccc2NC(C)=O)c(=O)[nH]1 | inactive: 95.3%
5 | O=C(O)c1ccc(/C=N/NC(=S)NCc2ccccc2)cc1 | inconclusive: 106%
6 | COC(=O)Cc1cccc2c(=O)c3ccccc3oc12 | inconclusive: 16.8%
7 | O=C(N/N=C/c1cccnc1)c1ccc(Cn2cc([N+](=O)[O-])cn2)o1 | inconclusive: 71.7%
8 | Cc1onc(-c2c(Cl)cccc2Cl)c1C(=O)c1ccccc1 | inconclusive: 80.8%
9 | CC(/C=N/n1c(-c2ccco2)n[nH]c1=S)=C\c1ccco1 | inactive: 76.3%
10 | N#Cc1c(-c2ccccc2Cl)cc(-c2ccccc2)[nH]c1=S | inconclusive: 59.7%
11 | COc1ccc(S(=O)(=O)N2CCC(N3CCN(c4ccccc4OC)CC3)CC2)cc1 | inconclusive: 77.3%
12 | CCC(C(=O)O)n1nc(-c2ccccc2)c2cc(Cl)ccc21 (stereo not drawn) | inactive: 97.8%
13 | COC(=O)c1ccc(Nc2cc(C)nc3ccccc23)cc1 | inconclusive: 128%
14 | c1ccc(-c2ccc(CN3C[C@@H]4C(c5ccccc5)C5(c6ccccc6)CC4(C5)[C@H]3c3ccccc3)cc2)cc1 (stereo partly drawn) | inconclusive: 99.5%
15 | CCOC(=O)c1ccc(-n2c(CN3CCC(O)CC3)nc3ccc([N+](=O)[O-])cc3c2=O)cc1 | inconclusive: 96.9%
16 | CC1(C)CC(=O)C=C(NC2=CC3OC(c4ccccc4)OCC3OC2=O)C1 (stereo not drawn) | inactive: 97.5%
17 | O=C(Cn1cccc1C(=O)c1ccccc1)NCCC1=CCCCC1 | inactive: 103%
18 | O=C(N/C(=C/c1cccnc1)C(=O)N1CCOCC1)c1ccccc1F | inconclusive: 88.8%
19 | O=C(OCCC1Oc2cccnc2NC1=O)c1ccc(F)cc1 (stereo not drawn) | inconclusive: 111%
20 | CC(C)(C)OC(=O)NCCNC(=O)c1cccs1 | inconclusive: 76.3%
21 | Cc1ccc(C)n1-c1nccc(-c2ccco2)n1 | inconclusive: 102%
22 | CCn1c(CCNC(=O)c2cccs2)n[nH]c1=S | inactive: 103%
23 | CCCCCCCc1c(O)nc(SCC(=O)O)[nH]c1=O | inconclusive: 125%
24 | CCCc1nc2oc3ccccc3c(=O)c2c(=O)n1CCCOC | inconclusive: 163%

Structural class, those above containing an NH in an aromatic ring.
Row | Structure (SMILES) | binding response (% of control)
4 | CCCCCSc1nnc(-c2ccccc2NC(C)=O)c(=O)[nH]1 | inactive: 95.3%
9 | CC(/C=N/n1c(-c2ccco2)n[nH]c1=S)=C\c1ccco1 | inactive: 76.3%
10 | N#Cc1c(-c2ccccc2Cl)cc(-c2ccccc2)[nH]c1=S | inconclusive: 59.7%
22 | CCn1c(CCNC(=O)c2cccs2)n[nH]c1=S | inactive: 103%
23 | CCCCCCCc1c(O)nc(SCC(=O)O)[nH]c1=O | inconclusive: 125%

Later entries.

Row | Structure (SMILES) | binding response (% of control)
25 | O=C(CCCN1C(=O)c2ccccc2C1=O)Nc1nc2ccccc2[nH]1 | inconclusive: 100%
26 | COc1ccc(/C=C/C(=O)NCC(=O)n2nc(C)cc2C)cc1 | inconclusive: 318%
27 | NNC(=O)c1csc(-c2ccc(C(F)(F)F)cc2Cl)n1 | inconclusive: 88.9%
28 | CN(C)c1ccc(C(=O)NNC(=O)Nc2ccccc2)cc1 | inconclusive: 116%
29 | O=S(=O)(Cc1ccccc1Cl)NCCc1ccccc1 | inactive: 105%
30 | CCOC(=O)c1c(O)c2ccccc2oc1=O | inconclusive: 22.3%
31 | CCCC1=NN(C(=O)Cc2ccc(OC)c(OC)c2)C(O)(C(F)(F)F)C1 (stereo not drawn) | inconclusive: 216%
32 | CC#CC[N+](C)(C)CC(=O)c1ccccc1 | inconclusive: -68.7%
33 | O=C1NCC2(CCN(CCc3ccccc3)CC2)O1 | inconclusive: 106%
34 | N#Cc1cccnc1N1CCN(C(=O)c2ccco2)CC1 | inconclusive: 116%
35 | COc1ccc(CNCCC(c2ccccc2)C2CCOC(C)(C)C2)cc1 (stereo not drawn) | inconclusive: 117%
36 | N/C(=C\C(=O)c1cc(Cl)ccc1O)C(Cl)(Cl)Cl | inconclusive: 66.1%
37 | COc1cc(/C=C2\SC(=S)N(C(Cc3ccccc3)C(=O)O)C2=O)ccc1O (stereo not drawn) | inconclusive: 51.8%
38 | Cc1ccc(N/N=C/c2c(C)c(C#N)c(=O)n(C)c2O)cc1C | inconclusive: 86.3%
39 | Cc1ccc(C)c(/C(O)=C2\C(=O)C(=O)N(Cc3cccnc3)C2c2cccnc2)c1 (stereo not drawn) | inactive: 105%
40 | NC(=O)Nc1ccc(Cl)cc1 | inconclusive: 106%
41 | O=C(C1CCCCC1)N1CCN(c2ccnc3cc(Cl)ccc23)CC1 | inconclusive: -136%
42 | NS(=O)(=O)c1ccc(CCNC(=O)CSc2ccc(Cl)cc2Cl)cc1 | inconclusive: 113%
43 | CCCCCNC(=O)C(=O)C1C(=O)Nc2ccccc21 (stereo not drawn) | inconclusive: 95.3%
44 | CN1CCC(N(C)C(=S)Nc2ccc(F)cc2)CC1 | inconclusive: 114%
45 | CN(C)c1cc(-c2ccc(Cl)c(Cl)c2)oc(=O)c1Cl | inconclusive: 87.2%
46 | S=c1[nH]nc(-c2cc(-c3ccccc3)n[nH]2)n1/N=C/c1ccc(Br)s1 | inconclusive: -72.3%
47 | CCCCNC(=O)CCn1nc(-c2ccc(Cl)cc2)c2ccccc2c1=O | inconclusive: 91.3%
48 | c1ccc(COc2ccc(CNCc3cccnc3)cc2)cc1 | inactive: 105%

Row | Structure (SMILES) | binding response (% of control)
49 | O=C(c1ccc(F)cc1)N1CCN(c2cnn(-c3ccccc3)c(=O)c2Cl)CC1 | inconclusive: 132%
50 | COc1ccc(NC(=O)CCC(=O)OC(C(=O)c2ccccc2)c2ccccc2)cc1 (stereo not drawn) | inactive: 106%
51 | CN(CC(O)Cn1cnc2c1c(=O)n(C)c(=O)n2C)c1ccccc1 (stereo not drawn) | inactive: 100%
52 | Cc1c(C(=O)NC(=S)Nc2ccccc2N2CCCC2)cccc1[N+](=O)[O-] | inactive: 101%
53 | O=S(=O)(Cc1ccco1)Cc1nc(-c2ccc(Cl)cc2)cs1 | inconclusive: 99.3%
54 | COC(=O)c1cnc(Oc2ccc(NC(=O)NC(=O)c3c(OC)cccc3OC)cc2)cc1C(F)(F)F | inconclusive: 92.2%
55 | CN(C)CCNCc1ccccc1OC1CCCC1 | inactive: 103%
56 | N#Cc1c(N2CCCC2)ccc(Br)c1Cl | inconclusive: 168%
57 | COc1ccccc1OCC(=O)N/N=C1\CCCCc2ccccc21 | inconclusive: 309%
58 | CC[C@H](C)[C@H](NC(=O)c1ccccc1)C(=O)Nc1ccc(S(=O)(=O)Nc2cc(C)nc(C)n2)cc1 | inconclusive: 153%
59 | COC(Cn1c2c(c3cc(C)ccc31)CCCC2NCc1ccccc1)OC (stereo not drawn) | inconclusive: 96.7%
60 | COc1ccc(NC(=O)CN(C)CC(=O)Nc2ccccc2SC)cc1Cl | inactive: 102%
61 | Oc1[nH]c2ccc(Br)cc2c1N=Nc1nn[nH]n1 | inconclusive: 160%
62 | Cc1[nH]c2c(C)cccc2c1CN1CCC(CO)(Cc2ccccc2)CC1 | inconclusive: 99.2%
63 | Cc1cc(NC(=O)C2CCC2)n(-c2ccccn2)n1 | active: 6.55%
64 | COc1ccccc1NS(=O)(=O)c1ccc(OC)c([N+](=O)[O-])c1 | inconclusive: 127%
65 | Cc1cc(C)n2nc(C(=O)N3CCCC(CNS(=O)(=O)c4cccs4)C3)cc2n1 (stereo not drawn) | inactive: 97.6%
66 | CCOc1ccc(S(=O)(=O)N2CCN(C(=S)NCc3ccccc3)CC2)cc1 | inconclusive: 97.3%
67 | CNC(=O)c1nc(C)c(C2(C)CC(c3cccc([N+](=O)[O-])c3)=NO2)s1 (stereo not drawn) | inconclusive: 110%
68 | C=CCOc1ccc(CNCCc2ccc(S(N)(=O)=O)cc2)cc1 | inactive: 98.7%
69 | O=C(Cc1nnc(NC(=O)Nc2ccccc2)s1)Nc1ccccc1 | inconclusive: 110%
70 | CN(CC(=O)NCCc1ccc(F)cc1)Cc1cccc(Cl)c1 | inconclusive: 102%
71 | COC(=O)c1ccc(C)c(NC(=O)Cn2cnc3ccccc3c2=O)c1 | inactive: 118%
72 | COc1ccc2[nH]c3c4c(ccc3c2c1)C(=O)C=CC4=O | inconclusive: 32.4%

Row | Structure (SMILES) | binding response (% of control)
73 | CC(NS(=O)(=O)c1ccc(Br)cc1)C(=O)NCc1ccco1 (stereo not drawn) | inconclusive: 76%
74 | CC(C)c1ccc(NC(=S)N2CCCC(c3ccc(F)cc3)=N2)cc1 | inconclusive: 93%
75 | Cc1ccc(/C(O)=C/C(=O)C(=O)NC23CC4CC(CC(C4)C2)C3)cc1 | inconclusive: -555%
76 | CN(CC(=O)Nc1ccccc1C(F)(F)F)C(=O)CSc1nnnn1C | inconclusive: 90.7%
77 | CCC1(C(=O)OC)NC(c2cccc(F)c2)C2C(=O)N(C)C(=O)C21 (stereo not drawn) | inactive: 103%
78 | CNc1ccc(S(=O)(=O)NCC(=O)OCC(=O)Nc2cccc(Cl)c2Cl)cc1[N+](=O)[O-] | inactive: 107%
79 | COC(Cn1c(-c2cccc(S(=O)(=O)N(C)C)c2)n[nH]c1=S)OC | inconclusive: 92%
80 | CC(C)CC1NC(=O)N(Cc2nc3ccccc3s2)C1=O (stereo not drawn) | inconclusive: 105%
81 | Cc1ccc(CCNC(=O)C2CCC(=O)N2C(C)C)cc1 (stereo not drawn) | inactive: 99.6%
82 | CCOc1ccc2nc(NCCCNC(=O)c3cc(OC)c(OC)c(OC)c3)c(C#N)cc2c1 | inconclusive: 88%
83 | CCOc1cc(/C=N/NC(=O)c2cc(C)n(-c3ccc(F)cc3)c2C)ccc1O | inconclusive: 77.5%
84 | COc1ccc(-c2nc3c(n2O)CCc2c-3no[n+]2[O-])cc1 | inconclusive: 55%
85 | NC(=O)c1ccccc1NC(=O)c1ccccc1Cl | inconclusive: 95.9%
86 | COc1ccc(S(=O)(=O)NCC2CCCN(CC(C)(C)C)C2)cc1 (stereo not drawn) | inactive: 101%
87 | CCCc1nc(-c2cc3cc(C)ccc3[nH]c2=O)no1 | inconclusive: 121%
88 | O=C(O)CC/C(=N\Nc1ccc([N+](=O)[O-])cc1)c1ccccc1 | inconclusive: 80.2%
89 | COc1ccc(NC(=O)Nc2cnccn2)cc1 | inconclusive: -169%
90 | O=C(CSc1nc2ccc([N+](=O)[O-])cc2[nH]1)NCCc1ccccc1 | inactive: 124%
91 | Cc1cc2ncc(S(=O)(=O)c3ccccc3)c(N)n2n1 | inconclusive: 103%
92 | O=C(NCc1ccc2c(c1)OCO2)c1cccnc1Cl | inconclusive: 111%
93 | Cc1ccc2c(c1)sc(=NC(=O)C1CC1)n2C | inconclusive: 114%
